PubChem BioAssay AID1259308 | NCATS | 2017
The deposit covers about 59,000 reagents; this is an unselected part. Of all reagents, about 1,510 (2.6%) were called active. 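Calls use total luciferase alone and ignore viability, so some active siRNAs may act by altering cell number.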 The numbers tell different reagents against one gene apart. Further read-outs or replicates are left out here.

Screen: 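Candidate targets for better recombinant protein yield in mammalian cells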 (primary screen)
Cells: human HEK293 embryonic kidney cells stably expressing firefly luciferase (HEK-CMV-Luc2-Hygro)
Knock-down reagent: single siRNA against human genes, 0.8 pmol siRNA per well
Timing: 72 h
Read-out: 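Reporter luminescence and viable-cell signal on separate replicate plates, given as percent of non-targeting control and median/MAD z-scores, plus per-cell luciferase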
Reading the numbers: total luciferase, z-score: higher = more reporter protein produced
Active means: 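Active when the median/MAD z-score for overall luciferase is greater than 3; a gene was taken forward for validation with new siRNAs if at least two of its three siRNAs passed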
Calls: active = raised luciferase; inactive = no rise

total luciferase, z-score, by gene and reagent
ALDH5A1 (GeneID 7915): #1 0.217 inactive; #2 0.0124 inactive; #3 -0.841 inactive
BAIAP3 (GeneID 8938): #1 -0.591 inactive; #2 1.47 inactive; #3 -0.909 inactive
TRMT10A (GeneID 93587): #1 0.24 inactive; #2 -0.891 inactive; #3 -0.456 inactive
KIF27 (GeneID 55582): #1 0.417 inactive; #2 0.723 inactive; #3 -1.2 inactive
SNRPA1 (GeneID 6627): #1 -0.257 inactive; #2 0.357 inactive; #3 2.22 inactive
STRN (GeneID 6801): #1 -0.0859 inactive; #2 1.77 inactive; #3 -0.646 inactive
PCSK1N (GeneID 27344): #1 -1.01 inactive; #2 -0.801 inactive; #3 -0.684 inactive
MORC4 (GeneID 79710): #1 1.11 inactive; #2 -0.783 inactive; #3 -0.332 inactive
WDCP (GeneID 80304): #1 -0.552 inactive; #2 0.423 inactive; #3 -0.194 inactive
NXNL1 (GeneID 115861): #1 -0.68 inactive; #2 5.76 active; #3 0.56 inactive
TULP4 (GeneID 56995): #1 -1.39 inactive; #2 -0.66 inactive; #3 0.617 inactive
OR5D18 (GeneID 219438): #1 -1.29 inactive; #2 0.27 inactive; #3 -0.433 inactive
SCML2 (GeneID 10389): #1 0.0178 inactive; #2 -0.561 inactive; #3 -0.00705 inactive
RPL37P23 (GeneID 648217): #1 -0.0233 inactive; #2 -1.09 inactive; #3 1.88 inactive
IFT38 (GeneID 23059): #1 -1.66 inactive; #2 -0.844 inactive; #3 -1.86 inactive
PRIMA1 (GeneID 145270): #1 0.115 inactive; #2 0.439 inactive; #3 0.58 inactive
GRIN2C (GeneID 2905): #1 -0.265 inactive; #2 -1 inactive; #3 0.0391 inactive
ZNF506 (GeneID 440515): #1 0.36 inactive; #2 -0.766 inactive; #3 -0.463 inactive
SLC35F1 (GeneID 222553): #1 -0.347 inactive; #2 1.47 inactive; #3 -0.875 inactive

As entered above.
For “total luciferase, z-score”, OR5D18 (GeneID 219438) #1 shows -1.29
TULP4 (GeneID 56995) #1, total luciferase, z-score → -1.39
For “total luciferase, z-score”, SLC35F1 (GeneID 222553) #1 shows -0.347
Entry of PRIMA1 (GeneID 145270) #2 under “total luciferase, z-score”: 0.439
